Drawing on paper PMC13226657 (The EMBO Journal, 2026), this text covers binding for one molecule.

No constants are given. Whether binding was seen depends on the method and setting. Some entries that bind do so weakly or less than the wild type.

The target of the assay is SLC1A1g-X, Hg2+-crosslinked K269C/W441C mutant of SLC1A1g (human) (UniProt P43005). Kind of assay: cryo-EM structure; SLC1A1g-X (Hg2+-crosslinked K269C/W441C) in 0.01% GDN, 300 mM KCl, with 100 µM compound 3e; refined with C3 symmetry, then symmetry expansion; both purified.

B1: SLC1A1g-X, Hg2+-crosslinked K269C/W441C mutant of SLC1A1g (protein, UniProt P43005 1-524)
chain: MGKPARKGCEWKRFLKNNWVLLSTVAAVVLGITTGVLVREHSNLSTLEKFYFAFPGEILMRMLKLIILPLIISSMITGVAALDSNVSGKIGLRAVVYYFCTTLIAVILGIVLVVSIKPGVTQKVGEIARTGSTPEVSTVDAMLDLIRNMFPENLVQACFQQYKTKREEVKPPSDPEMTMTEESFTAVMTTAISKTKTKEYKIVGMYSDGINVLGLIVFCLVFGLVIGKMGEKGQILVDFFNALSDATMKIVQIIMCYMPLGILFLIAGCIIEVEDWEIFRKLGLYMATVLTGLAIHSIVILPLIYFIVVRKNPFRFAMGMAQALLTALMISSSSATLPVTFRCAEENNQVDKRITRFVLPVGATINMDGTALYEAVAAVFIAQLNDLDLGIGQIITISITATSASIGAAGVPQAGLVTMVIVLSAVGLPAEDVTLIIAVDCLLDRFRTMVNVLGDAFGTGIVEKLSKKELEQMDVSSEVNIVNPFALESTILDNEDSDTKKSYVNGGFAVDKSDTISFTQTSQF
modifications: Hg2+-mediated cross-linking of K269C/W441C (20-molar excess of HgCl2)
As for B1, the binding result is “binds”.
